Results are given in words; binding and its absence hold for the method and conditions named. Binding calls can cover weak binding; strength is not graded here.

This experiment deals with HLA-B*07:02 (human). The experiment is described as follows: UV peptide exchange, anti-b2m ELISA. On the technique in general: An ELISA detects its analyte on a solid surface through an enzyme-linked reagent.
On to SPGATSRGTL [… (SEQ ID NO: 137)], for which the binding entry is “binds”.
Turning to VPNQSSESL [… (SEQ ID NO: 121)], the binding result was “binds”.
Turning to TVREASGLL [… (SEQ ID NO: 297)], the binding entry is listed as “binds”.
As for APRWFPQPTVV [… (SEQ ID NO: 147)], the binding result was “binds”.
For the molecule LPSDSHFKITF [… (SEQ ID NO: 124)], the binding result is reported as “binds”.
For the molecule LPRPGAVL [LPRPGAVL (SEQ ID NO: 304)], the binding result is “binds”.
IPRPEVQAL [… (SEQ ID NO: 146)]: the binding entry is recorded as “binds”.
KVKSDRSVF [… (SEQ ID NO: 313)]: the binding result was “binds”.
In the case of APAAWLRSA [… (SEQ ID NO: 36)], the binding result was “binds”.
For TPWAESSTKF [… (SEQ ID NO: 305)], the binding result is listed as “binds”.
With RPLFYVVSL [… (SEQ ID NO: 311)], the binding entry is “binds”.
As to IPMAAVKQAL [… (SEQ ID NO: 300)], the binding result is recorded as “binds”.
On to LPRGPLASLL [… (SEQ ID NO: 34)], for which the binding entry was “binds”.
On to SPSPVSSTL [… (SEQ ID NO: 144)], for which the binding entry is “binds”.
Consider YPRTITPGM [… (SEQ ID NO: 128)], for which the binding entry was “binds”.
Then HPGSSALHY [… (SEQ ID NO: 299)], with “binds”.
Turning to FPQSQYPQY [… (SEQ ID NO: 309)], the binding result is “binds”.
With APRAGSQVV [… (SEQ ID NO: 127)], the binding result is reported as “binds”.
Then GPREALSRL [… (SEQ ID NO: 149)], with “binds”; and RPLFQKSSM [… (SEQ ID NO: 37)], with “binds”; and FPRLVGPDF [… (SEQ ID NO: 130)], with “binds”.
With VPDSGATATAY [… (SEQ ID NO: 293)], the binding entry was “binds”.
In the case of SPAMTSTSF [… (SEQ ID NO: 143)], the binding result is listed as “binds”.
Next, MPNLPSTTSL [… (SEQ ID NO: 133)]: “binds”.
Regarding VPDQPHPEI [… (SEQ ID NO: 314)], the binding result is listed as “binds”.
Consider FPNRLNLEA [… (SEQ ID NO: 318)], for which the binding result is on record as “binds”.
Then APRPASSL [APRPASSL (SEQ ID NO: 129)], with “binds”; and FPMSPVTSV [… (SEQ ID NO: 320)], with “binds”; and SPRTEASSAVL [… (SEQ ID NO: 140)], with “binds”.
Then SPASRSISL [… (SEQ ID NO: 118)], with “binds”.
Then YPLRGSSIFGL [… (SEQ ID NO: 295)], with “binds”.
On to APTEDLKAL [… (SEQ ID NO: 131)], for which the binding result is listed as “binds”.
Turning to IPGPAQSTI [… (SEQ ID NO: 132)], the binding entry was “binds”.
Next, SPRENFPDTL [… (SEQ ID NO: 315)]: “binds”; KPSESIYSAL [… (SEQ ID NO: 123)]: “binds”; YPTEHVQF [YPTEHVQF (SEQ ID NO: 298)]: “binds”.
With LPYGPGSEAAAF [… (SEQ ID NO: 307)], the binding entry is on record as “binds”.
As for RVEEVRALL [… (SEQ ID NO: 302)], the binding result is “binds”.
Regarding LPYFREFSM [… (SEQ ID NO: 312)], the binding result is “binds”.
For the molecule YPLRGSSIF [… (SEQ ID NO: 294)], the binding result is reported as “binds”.
Turning to VPVYILLDEM [… (SEQ ID NO: 125)], the binding entry is on record as “binds”.
As to FPDNQRPAL [… (SEQ ID NO: 35)], the binding entry is listed as “binds”.
For FPFQPGSV [FPFQPGSV (SEQ ID NO: 317)], the binding result was “binds”.
Take RPIVPGPLL [… (SEQ ID NO: 134)]: the binding result is on record as “binds”.
For the molecule APVIFSHSA [… (SEQ ID NO: 306)], the binding entry is “binds”.
On to TPGLRETSI [… (SEQ ID NO: 142)], for which the binding result is on record as “binds”.
Take SPHPVTALLTL [… (SEQ ID NO: 38)]: the binding entry was “binds”.
With SPAEPSVYATL [… (SEQ ID NO: 319)], the binding entry was “binds”.
In the case of RVRSTISSL [… (SEQ ID NO: 135)], the binding result is recorded as “binds”.
In the case of SPTFHLTL [SPTFHLTL (SEQ ID NO: 33)], the binding result was “binds”.
As for RPAMNYDKL [… (SEQ ID NO: 120)], the binding entry was “binds”.
Turning to KPGTSYRVTL [… (SEQ ID NO: 40)], the binding entry was “binds”.
Take SPMDTFLLI [… (SEQ ID NO: 321)]: the binding entry is listed as “binds”.
Then RVRSRISNL [… (SEQ ID NO: 41)], with “binds”; and KPGPEDKL [KPGPEDKL (SEQ ID NO: 126)], with “binds”; and EPKTATVL [EPKTATVL (SEQ ID NO: 316)], with “binds”.
With SPNKGTLSV [… (SEQ ID NO: 32)], the binding result is listed as “binds”.
For the molecule SPMTSLLTSGL [… (SEQ ID NO: 141)], the binding entry is given as “binds”.
Next, SPRRSPRISF [… (SEQ ID NO: 301)]: “binds”; SPMATTSTL [… (SEQ ID NO: 138)]: “binds”; LPMWKVTAF [… (SEQ ID NO: 303)]: “binds”.
For the molecule YPLRGSSI [YPLRGSSI (SEQ ID NO: 296)], the binding result is on record as “binds”.
As for SPSSPMSTF [… (SEQ ID NO: 145)], the binding entry was “binds”.
As for SPQSMSNTL [… (SEQ ID NO: 139)], the binding entry is given as “binds”.
Turning to SPFSAEEANSL [… (SEQ ID NO: 136)], the binding result is “binds”.
Take KPYGGSGPL [… (SEQ ID NO: 148)]: the binding entry was “binds”.
YPGFPQSQY [… (SEQ ID NO: 122)]: the binding result is on record as “binds”.
In the case of SPDPSKHLL [… (SEQ ID NO: 322)], the binding result is recorded as “binds”.
Turning to RPAPFEVVF [… (SEQ ID NO: 39)], the binding entry is recorded as “binds”.
On to APLPRPGAVL [… (SEQ ID NO: 119)], for which the binding result is “binds”.
